Assay results taken from paper PMC10933402.
No constants are given. Whether binding was seen depends on the method and setting. For some assays here: Binding seen in cells or lysates may run through a third protein. Some results given as binding are weak or reduced against the parent protein; the word gives no strength. For some assays here: Sequences can lack the tags named with a protein.

B1: MARS (methionyl tRNA synthetase), endogenous (protein, UniProt P56192 1-900)
chain: MRLFVSDGVPGCLPVLAAAGRARGRAEVLISTVGPEDCVVPFLTRPKVPVLQLDSGNYLFSTSAICRYFFLLSGWEQDDLTNQWLEWEATELQPALSAALYYLVVQGKKGEDVLGSVRRALTHIDHSLSRQNCPFLAGETESLADIVLWGALYPLLQDPAYLPEELSALHSWFQTLSTQEPCQRAAETVLKQQGVLALRPYLQKQPQPSPAEGRAVTNEPEEEELATLSEEEIAMAVTAWEKGLESLPPLRPQQNPVLPVAGERNVLITSALPYVNNVPHLGNIIGCVLSADVFARYSRLRQWNTLYLCGTDEYGTATETKALEEGLTPQEICDKYHIIHADIYRWFNISFDIFGRTTTPQQTKITQDIFQQLLKRGFVLQDTVEQLRCEHCARFLADRFVEGVCPFCGYEEARGDQCDKCGKLINAVELKKPQCKVCRSCPVVQSSQHLFLDLPKLEKRLEEWLGRTLPGSDWTPNAQFITRSWLRDGLKPRCITRDLKWGTPVPLEGFEDKVFYVWFDATIGYLSITANYTDQWERWWKNPEQVDLYQFMAKDNVPFHSLVFPCSALGAEDNYTLVSHLIATEYLNYEDGKFSKSRGVGVFGDMAQDTGIPADIWRFYLLYIRPEGQDSAFSWTDLLLKNNSELLNNLGNFINRAGMFVSKFFGGYVPEMVLTPDDQRLLAHVTLELQHYHQLLEKVRIRDALRSILTISRHGNQYIQVNEPWKRIKGSEADRQRAGTVTGLAVNIAALLSVMLQPYMPTVSATIQAQLQLPPPACSILLTNFLCTLPAGHQIGTVSPLFQKLENDQIESLRQRFGGGQAKTSPKPAVVETVTTAKPQQIQALMDEVTKQGNIVRELKAQKADKNEVAAEVAKLLDLKKQLAVAEGKPPEAPKGKKKK
B2: untagged recombinant BCDIN3D (enzyme, UniProt Q7Z5W3 1-292)
chain: MAVPTELDGGSVKETAAEEESRVLAPGAAPFGNFPHYSRFHPPEQRLRLLPPELLRQLFPESPENGPILGLDVGCNSGDLSVALYKHFLSLPDGETCSDASREFRLLCCDIDPVLVKRAEKECPFPDALTFITLDFMNQRTRKVLLSSFLSQFGRSVFDIGFCMSITMWIHLNHGDHGLWEFLAHLSSLCHYLLVEPQPWKCYRAAARRLRKLGLHDFDHFHSLAIRGDMPNQIVQILTQDHGMELICCFGNTSWDRSLLLFRAKQTIETHPIPESLIEKGKEKNRLSFQKQ
B3: MARS (methionyl tRNA synthetase), endogenous, P56192 1-900 (protein)
chain: B1 chain

Key:
BCDIN3D-FLAG (human) [1] = target: T1, BCDIN3D-FLAG (human) (UniProt Q7Z5W3); assay: co-IP; as the FLAG co-IP of BCDIN3Df, but performed in the presence of RNase A (30 µg; 1.5 µL at 20 µg/µL)
T1 sequence: B2 chain

BCDIN3D-FLAG (human) [2] = target: T1, BCDIN3D-FLAG (human); assay: co-IP; HeLa-S3-FlpIn control and BCDIN3Df lysates (mock treated), anti-FLAG M2 beads, 4 h at 4 °C, co-IP buffer (20 mM HEPES pH 7.5, 150 mM NaCl, 20% glycerol, 0.1% NP-40, 1 mM EDTA), elution with 3×FLAG peptide, western blots
GST-MARS [3] = target: T2, GST-MARS (UniProt P56192); assay: pull-down; 10 pmol GST-MARS on glutathione beads, then mock or 100 pmol RNA with 5′-P or 5′-Pme ends, then 100 pmol EPRS in binding buffer 1 (50 mM Tris-HCl pH 8, 50 mM NaCl, 0.5% NP-40), 2 h at 4 °C; both purified
T2 sequence: B1 chain

GST-EPRS = GST-EPRS (UniProt P07814); assay: pull-down; 10 pmol GST-EPRS or GST-MARS on glutathione beads, then mock or 100 pmol synthetic RNA-5′-P or -5′-Pme, then 100 pmol untagged BCDIN3D in binding buffer 2 (50 mM Tris-HCl pH 8, 50 mM NaCl, 0.5% NP-40, 5 mM DTT), 2 h at 4 °C; both purified
GST-MARS [4] = target: T2, GST-MARS; assay: as above
[5] = target: T3, EPRS (bifunctional glutamyl-prolyl-tRNA synthase), endogenous (human (endogenous in HeLa-S3-FlpIn)), P07814; assay: co-IP; 5 µg anti-EPRS (or anti-GFP control) antibody, Dynabeads Protein G, lysates of HeLa-S3-FlpIn control and BCDIN3D-KO cells, quantitative LI-COR western blot for EPRS and MARS; settings: remark: other sources report otherwise
T3 chain: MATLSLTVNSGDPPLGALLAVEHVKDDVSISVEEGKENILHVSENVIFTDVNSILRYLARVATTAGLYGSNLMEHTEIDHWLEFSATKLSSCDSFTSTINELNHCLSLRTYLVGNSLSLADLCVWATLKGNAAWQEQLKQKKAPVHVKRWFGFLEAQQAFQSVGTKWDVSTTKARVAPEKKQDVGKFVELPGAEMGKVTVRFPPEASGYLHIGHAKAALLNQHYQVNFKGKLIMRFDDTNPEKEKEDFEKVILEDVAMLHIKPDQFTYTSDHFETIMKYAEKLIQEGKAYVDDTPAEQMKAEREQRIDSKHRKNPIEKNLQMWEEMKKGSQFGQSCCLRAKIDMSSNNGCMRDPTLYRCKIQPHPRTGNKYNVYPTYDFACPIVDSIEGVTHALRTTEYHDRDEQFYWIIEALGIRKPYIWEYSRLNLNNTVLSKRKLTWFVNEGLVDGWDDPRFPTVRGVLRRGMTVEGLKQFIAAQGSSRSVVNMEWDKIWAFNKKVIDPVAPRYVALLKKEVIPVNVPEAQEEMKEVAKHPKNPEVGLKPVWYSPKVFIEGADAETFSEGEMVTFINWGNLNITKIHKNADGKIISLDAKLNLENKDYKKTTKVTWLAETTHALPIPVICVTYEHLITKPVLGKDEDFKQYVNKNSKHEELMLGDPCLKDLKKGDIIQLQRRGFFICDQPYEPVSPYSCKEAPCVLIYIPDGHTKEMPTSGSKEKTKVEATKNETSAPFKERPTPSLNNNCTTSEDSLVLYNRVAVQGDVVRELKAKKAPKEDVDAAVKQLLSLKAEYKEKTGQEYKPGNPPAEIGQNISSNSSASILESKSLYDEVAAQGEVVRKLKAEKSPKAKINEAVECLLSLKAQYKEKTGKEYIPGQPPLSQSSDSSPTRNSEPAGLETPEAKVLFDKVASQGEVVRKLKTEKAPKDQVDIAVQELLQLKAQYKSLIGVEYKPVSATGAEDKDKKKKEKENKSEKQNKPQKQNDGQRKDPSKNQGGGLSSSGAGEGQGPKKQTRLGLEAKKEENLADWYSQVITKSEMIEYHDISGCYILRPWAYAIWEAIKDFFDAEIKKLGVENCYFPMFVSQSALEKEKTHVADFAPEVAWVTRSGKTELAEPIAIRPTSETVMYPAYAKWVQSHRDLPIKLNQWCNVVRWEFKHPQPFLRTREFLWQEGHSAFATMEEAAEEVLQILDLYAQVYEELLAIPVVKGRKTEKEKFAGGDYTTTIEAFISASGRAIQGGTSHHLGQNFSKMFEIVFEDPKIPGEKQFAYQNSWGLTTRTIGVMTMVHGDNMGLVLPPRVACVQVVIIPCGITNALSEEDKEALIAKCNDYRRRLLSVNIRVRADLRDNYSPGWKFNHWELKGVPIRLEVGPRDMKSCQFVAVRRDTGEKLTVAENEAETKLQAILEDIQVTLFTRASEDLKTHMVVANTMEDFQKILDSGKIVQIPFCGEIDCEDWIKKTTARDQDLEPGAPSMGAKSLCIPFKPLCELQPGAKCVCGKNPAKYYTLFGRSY

| Molecule | binding (BCDIN3D-FLAG (human) [1]) | binding (BCDIN3D-FLAG (human) [2]) | further results |
| --- | --- | --- | --- |
| EPRS (bifunctional glutamyl-prolyl-tRNA synthase), endogenous (from UniProt P07814 1-1512) | no binding (condition: lysate treated with 30 µg RNase A) | binds | – |
| EPRS-C-MYC/DDK (from UniProt P07814 1-1512) | – | – | binding (GST-MARS [3]): binds weakly |
| B1 | no binding (condition: lysate treated with 30 µg RNase A) | binds | – |
| B2 | – | – | binding (GST-EPRS): binds weakly; binding (GST-MARS [4]): binds weakly |
| B3 | – | – | binding [5]: binds |
